Results reported in PMC3937224, “Convergence of Light and ABA Signaling on the ABI5 Promoter” (PLoS Genetics, 2014).
No constants are given. Whether binding was seen depends on the method and setting. Some results given as binding are weak or reduced against the parent protein; the word gives no strength.

T1: ABI5 (Arabidopsis thaliana) (UniProt Q9SJN0)
T1 sequence: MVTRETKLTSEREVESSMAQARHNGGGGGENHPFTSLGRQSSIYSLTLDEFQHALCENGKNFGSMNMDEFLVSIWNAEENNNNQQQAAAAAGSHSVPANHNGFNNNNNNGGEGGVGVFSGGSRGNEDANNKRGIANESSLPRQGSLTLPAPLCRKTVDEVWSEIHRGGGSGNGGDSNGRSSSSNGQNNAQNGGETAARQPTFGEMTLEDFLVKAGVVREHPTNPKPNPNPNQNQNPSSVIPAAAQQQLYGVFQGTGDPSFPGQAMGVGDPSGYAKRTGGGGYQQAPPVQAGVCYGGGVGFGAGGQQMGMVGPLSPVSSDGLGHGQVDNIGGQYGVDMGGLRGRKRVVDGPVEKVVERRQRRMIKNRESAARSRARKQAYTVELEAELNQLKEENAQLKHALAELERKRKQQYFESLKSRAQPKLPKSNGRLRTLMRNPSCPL

T2: HY5 (Arabidopsis thaliana) (UniProt O24646)
T2 sequence: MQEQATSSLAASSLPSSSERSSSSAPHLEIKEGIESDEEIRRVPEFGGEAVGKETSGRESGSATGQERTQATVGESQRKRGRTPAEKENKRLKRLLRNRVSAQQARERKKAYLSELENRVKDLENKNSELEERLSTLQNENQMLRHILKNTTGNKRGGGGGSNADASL


Experiments:
[1] = target: T1, ABI5 (Arabidopsis thaliana); assay: two-hybrid; yeast two-hybrid; X-gal plates and liquid assay (Clontech Yeast Protocols Handbook); BBX21 domains fused to GAL4-AD
[2] = target: T2, HY5 (Arabidopsis thaliana); assay: as above

Binder	binding [1]	binding [2]
6×His-BBX21 (natural protein, Arabidopsis thaliana, UniProt Q9LQZ7 1-331, looked up, BBX21 (STH2), Arabidopsis thaliana; also called 6×His-tagged BBX21; source: Escherichia coli, purified) MKIRCDVCDKEEASVFCTADEASLCGGCDHQVHHANKLASKHLRFSLLYPSSSNTSSPLCDICQDKKALLFCQQDRAILCKDCDSSIHAANEHTKKHDRFLLTGVKLSATSSVYKPTSKSSSSSSSNQDFSVPGSSISNPPPLKKPLSAPPQSNKIQPFSKINGGDASVNQWGSTSTISEYLMDTLPGWHVEDFLDSSLPTYGFSKSGDDDGVLPYMEPEDDNNTKRNNNNNNNNNNNTVSLPSKNLGIWVPQIPQTLPSSYPNQYFSQDNNIQFGMYNKETSPEVVSFAPIQNMKQQGQNNKRWYDDGGFTVPQITPPPLSSNKKFRSFW	binds	binds
BBX21 D20A (protein, UniProt Q9LQZ7 1-331) MKIRCDVCDKEEASVFCTAAEASLCGGCDHQVHHANKLASKHLRFSLLYPSSSNTSSPLCDICQDKKALLFCQQDRAILCKDCDSSIHAANEHTKKHDRFLLTGVKLSATSSVYKPTSKSSSSSSSNQDFSVPGSSISNPPPLKKPLSAPPQSNKIQPFSKINGGDASVNQWGSTSTISEYLMDTLPGWHVEDFLDSSLPTYGFSKSGDDDGVLPYMEPEDDNNTKRNNNNNNNNNNNTVSLPSKNLGIWVPQIPQTLPSSYPNQYFSQDNNIQFGMYNKETSPEVVSFAPIQNMKQQGQNNKRWYDDGGFTVPQITPPPLSSNKKFRSFW	binds	
BBX21 D75A (protein, UniProt Q9LQZ7 1-331) MKIRCDVCDKEEASVFCTADEASLCGGCDHQVHHANKLASKHLRFSLLYPSSSNTSSPLCDICQDKKALLFCQQARAILCKDCDSSIHAANEHTKKHDRFLLTGVKLSATSSVYKPTSKSSSSSSSNQDFSVPGSSISNPPPLKKPLSAPPQSNKIQPFSKINGGDASVNQWGSTSTISEYLMDTLPGWHVEDFLDSSLPTYGFSKSGDDDGVLPYMEPEDDNNTKRNNNNNNNNNNNTVSLPSKNLGIWVPQIPQTLPSSYPNQYFSQDNNIQFGMYNKETSPEVVSFAPIQNMKQQGQNNKRWYDDGGFTVPQITPPPLSSNKKFRSFW	binds	
BBX21 D84A (protein, UniProt Q9LQZ7 1-331) MKIRCDVCDKEEASVFCTADEASLCGGCDHQVHHANKLASKHLRFSLLYPSSSNTSSPLCDICQDKKALLFCQQDRAILCKDCASSIHAANEHTKKHDRFLLTGVKLSATSSVYKPTSKSSSSSSSNQDFSVPGSSISNPPPLKKPLSAPPQSNKIQPFSKINGGDASVNQWGSTSTISEYLMDTLPGWHVEDFLDSSLPTYGFSKSGDDDGVLPYMEPEDDNNTKRNNNNNNNNNNNTVSLPSKNLGIWVPQIPQTLPSSYPNQYFSQDNNIQFGMYNKETSPEVVSFAPIQNMKQQGQNNKRWYDDGGFTVPQITPPPLSSNKKFRSFW	binds	
